Assay results reported in paper PMC7138817, “The [4Fe-4S] cluster of sulfurtransferase TtuA desulfurizes TtuB during tRNA modification in Thermus thermophilus” (Communications Biology, 2020).
Results are given in words; binding and its absence hold for the method and conditions named. Some results given as binding are weak or reduced against the parent protein; the word gives no strength. Sequences can lack the tags named with a protein.

How the values were obtained:
[1] = molecular target: T1, TtuA from Thermus thermophilus (HB27 strain) possessing the [4Fe-4S] cluster, co-expressed with TtuB (Thermus thermophilus (HB27 strain)) (UniProt Q72LF3); experiment: crystal structure; co-expressed and co-purified holo-TtuA-TtuB, 13.4 mg/ml, sitting drop vapor diffusion at 293 K, anaerobic; 0.15 M ammonium sulfate, 0.1 M Tris pH 8.0, 15% PEG 4000; crystals soaked with ATP; both purified
T1 sequence: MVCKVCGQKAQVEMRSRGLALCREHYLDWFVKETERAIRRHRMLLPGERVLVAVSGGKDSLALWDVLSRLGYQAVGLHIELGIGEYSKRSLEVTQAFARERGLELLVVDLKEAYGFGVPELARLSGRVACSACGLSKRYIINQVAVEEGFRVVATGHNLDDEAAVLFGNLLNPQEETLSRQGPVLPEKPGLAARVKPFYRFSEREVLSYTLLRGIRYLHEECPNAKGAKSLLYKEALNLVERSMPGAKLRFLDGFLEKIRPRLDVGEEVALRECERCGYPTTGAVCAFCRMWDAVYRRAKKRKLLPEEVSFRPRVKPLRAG

[2] = molecular target: T1, TtuA from Thermus thermophilus (HB27 strain) possessing the [4Fe-4S] cluster, co-expressed with TtuB (Thermus thermophilus (HB27 strain)); experiment: EPR spectroscopy; co-expressed TtuA-TtuB(COOH) complex as used for X-ray crystallography; temperature dependence and simulation of the spectra compared with TtuA plus TtuB-COSH; both purified

binding [1]: binds
binding [2]: binds
B1: TtuB-COOH from Thermus thermophilus (HB27 strain), His6-tagged, co-expressed with TtuA (protein, UniProt Q72LF4 2-65)
chain: RVVLRLPERKEVEVKGNRPLREVLEELGLNPETVVAVRGEELLTLEDEVREEDTLEVLSAISGG
